Assay results published in paper PMC10398932.
No constants are given. Whether binding was seen depends on the method and setting. Binding seen in cells or lysates may run through a third protein. Some binding calls cover weakened binding; strength is not graded here.

By UniProt entry, the sequences of proteins in these tests, tags left out.
UniProt Q00987: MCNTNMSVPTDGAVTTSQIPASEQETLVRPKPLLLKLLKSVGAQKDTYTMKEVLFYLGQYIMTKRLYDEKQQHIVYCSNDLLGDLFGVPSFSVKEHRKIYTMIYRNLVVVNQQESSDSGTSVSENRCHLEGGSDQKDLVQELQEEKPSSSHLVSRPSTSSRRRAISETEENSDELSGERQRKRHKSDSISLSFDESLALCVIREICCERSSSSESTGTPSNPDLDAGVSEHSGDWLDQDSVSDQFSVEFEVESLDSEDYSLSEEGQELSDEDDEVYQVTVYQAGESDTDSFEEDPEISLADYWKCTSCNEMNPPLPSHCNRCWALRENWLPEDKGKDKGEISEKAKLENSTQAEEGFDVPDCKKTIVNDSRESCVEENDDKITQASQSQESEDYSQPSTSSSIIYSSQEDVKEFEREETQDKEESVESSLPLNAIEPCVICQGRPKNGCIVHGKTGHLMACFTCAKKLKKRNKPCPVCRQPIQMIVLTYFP

Biological target: T1, Germ cell-specific gene 2 (GSG2) (human (endogenous in MCF-7 and MDA-MB-231)) (UniProt Q8TF76)
T1 sequence: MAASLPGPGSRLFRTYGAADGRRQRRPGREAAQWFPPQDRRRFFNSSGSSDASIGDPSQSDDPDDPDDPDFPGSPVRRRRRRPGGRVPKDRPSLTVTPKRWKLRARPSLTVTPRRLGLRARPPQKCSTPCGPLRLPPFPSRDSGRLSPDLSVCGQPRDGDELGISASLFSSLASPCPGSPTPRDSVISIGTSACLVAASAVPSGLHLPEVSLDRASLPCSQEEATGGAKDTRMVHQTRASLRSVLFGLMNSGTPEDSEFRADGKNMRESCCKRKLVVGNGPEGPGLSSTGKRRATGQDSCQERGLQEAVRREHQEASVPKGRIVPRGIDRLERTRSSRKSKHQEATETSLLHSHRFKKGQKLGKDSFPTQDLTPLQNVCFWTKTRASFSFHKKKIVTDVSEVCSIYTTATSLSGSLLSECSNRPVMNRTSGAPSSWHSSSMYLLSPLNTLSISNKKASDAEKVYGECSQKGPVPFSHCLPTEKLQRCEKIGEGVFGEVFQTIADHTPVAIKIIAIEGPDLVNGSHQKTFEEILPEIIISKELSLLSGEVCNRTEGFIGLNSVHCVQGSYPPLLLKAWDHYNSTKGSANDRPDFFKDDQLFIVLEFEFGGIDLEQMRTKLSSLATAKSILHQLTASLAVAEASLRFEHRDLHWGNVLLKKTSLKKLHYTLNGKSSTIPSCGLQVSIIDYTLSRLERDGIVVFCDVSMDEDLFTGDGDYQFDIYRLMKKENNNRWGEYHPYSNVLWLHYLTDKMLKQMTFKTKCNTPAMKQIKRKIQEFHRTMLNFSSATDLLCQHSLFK
Experiment: co-IP; anti-GSG2 or anti-MDM2 antibody on Protein A/G beads, incubated with cell lysate, washed 3 times, western blot; forward and reverse; also MCF-7 and MDA-MB-231 cells treated with or without CHR-6494

- binding: binds
Substance: E3 ubiquitin ligase mouse double minute 2 (MDM2) (from UniProt Q00987 1-491)
